This is one part of the list.

Amino acid sequences for entries named in this document (tags omitted).
UniProt Q0JBA9, entry or part of it: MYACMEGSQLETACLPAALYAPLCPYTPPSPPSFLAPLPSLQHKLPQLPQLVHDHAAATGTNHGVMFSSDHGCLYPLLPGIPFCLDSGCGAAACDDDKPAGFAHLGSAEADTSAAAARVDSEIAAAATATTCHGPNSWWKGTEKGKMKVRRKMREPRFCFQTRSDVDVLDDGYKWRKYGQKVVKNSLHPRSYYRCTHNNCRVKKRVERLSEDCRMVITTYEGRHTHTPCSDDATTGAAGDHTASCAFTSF

The target in this assay is OsWRKY34 (Oryza sativa, UniProt Q0JBA9 1-250). The experiment in a line: protein-binding microarray (RPBM); PBS, 2% BSA, 51.3 ng/ul salmon testes DNA, 50 uM zinc acetate, 200 nM TF, 25 C, 1 h; high values mean tight binding. Particulars: protein: recombinant; tags: N-terminal polyhistidine and DsRed monomer fusion (pET32a); label: CyDye5-dUTP incorporated in the synthesized complementary strand; 3' TTTTT single-stranded linker to array surface; dsDNA, one strand shown. In short, it runs like this: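 In PBS with 2% BSA, salmon testes DNA and 50 µM zinc acetate, 200 nM protein was incubated on a custom Agilent array at 25 °C for 1 h and then washed off. The array had been made double-stranded by primer extension with Cy5-dUTP and blocked with 2% BSA. The proteins were transcription factors fused N-terminally to polyhistidine and DsRed, expressed in E. coli BL21-CodonPlus and purified on Ni–NTA. The binding signal is per-feature fluorescence intensity (arbitrary units) from an Axon 4000B scanner.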
With “GCCCTCGTGCTACTGCATTGCCGCCGCTGGCGCGTCGCTCCGGAGTCACCTAGTGCAG”, the binding signal is 8310 fluorescence intensity (a.u.).
The result for “CCTCGGTTAACCAAACAGCTGATCTACACATTTTTTTGCACGGAGTCACCTAGTGCAG” reads 9550 fluorescence intensity (a.u.).
Regarding “CTTTAAGCATAACTTTTCGTTTTTTATATTTGCACAATTTCGGAGTCACCTAGTGCAG”, the binding signal was 9320 fluorescence intensity (a.u.).
The value for “CAACTATTTTTCGCAAGTATGAGGGTGTTCTAGCCATTTTCGGAGTCACCTAGTGCAG” was 9290 fluorescence intensity (a.u.); that for “GTGAAGGGTGGTAATTAAAAGATGCACGTTACAAATAAGCCGGAGTCACCTAGTGCAG” was 8520 fluorescence intensity (a.u.).
On to “TCTCGATCGTCTCATCTCATCGTCTACCAACAACTAACCGCGGAGTCACCTAGTGCAG”, for which the binding signal was 8820 fluorescence intensity (a.u.).
Regarding “TACAACTGGGGTGCTCTTTCATTTGACGTCAAGCTCTGCACGGAGTCACCTAGTGCAG”, the binding signal was 8340 fluorescence intensity (a.u.).
In the case of “ACCGGCGGGCCCCACCATCTTGACTCCTCTCTGTGATCGACGGAGTCACCTAGTGCAG”, the binding signal is 8500 fluorescence intensity (a.u.).
As for “CGAACGTGGATGCTCTTTTTTCTATTTCTTTAATAATATACGGAGTCACCTAGTGCAG”, the binding signal was 8170 fluorescence intensity (a.u.).
With “CTACTATTTCTTCATGTTATATAATTCTCCTTGTTTAAGTCGGAGTCACCTAGTGCAG”, the binding signal was 10500 fluorescence intensity (a.u.).
Consider “GGCTTTCCCTATCTGCTCGCCAACCCAAATAGCATGTTATCGGAGTCACCTAGTGCAG”, for which the binding signal was 8880 fluorescence intensity (a.u.).
Consider “AGCCTTCCGGTGAACTCCGGCGACGGGCGGGTGTGGGGATCGGAGTCACCTAGTGCAG”, for which the binding signal is 11000 fluorescence intensity (a.u.).
The result for “AAGTCATCAGCTGCAGCCTCGGCCGCATCACATCTGAGCCCGGAGTCACCTAGTGCAG” reads 8270 fluorescence intensity (a.u.); that for “ACGTTGCCCTGCCTGCTTTCTTCTTGGATCGTCTCCATCTCGGAGTCACCTAGTGCAG”, 9520 fluorescence intensity (a.u.).
The value for “TTTATCTATTTTGGAACATTATTATATACATGTTAATTGTCGGAGTCACCTAGTGCAG” was 8430 fluorescence intensity (a.u.); that for “CTACACTTCCACTGGCGATCTCCCTGGCAATGGCCCTACTCGGAGTCACCTAGTGCAG” was 9860 fluorescence intensity (a.u.); that for “ACTGTAGTAGTAGTAGATTCGCTTGCCGTCACTCTCGTCCCGGAGTCACCTAGTGCAG” was 8570 fluorescence intensity (a.u.).
Regarding “TTCCGGGTCATGTGTACATTATTATTCGAGTGATTTTACACGGAGTCACCTAGTGCAG”, the binding signal was 8160 fluorescence intensity (a.u.).
The result for “TTTTGTGGTATTTTAAACATGGTTTATATTTCTTATATTTCGGAGTCACCTAGTGCAG” reads 9830 fluorescence intensity (a.u.); that for “TTTCACCTAGTCCTAGCCTAATTCGTCTATCTTTATCAATCGGAGTCACCTAGTGCAG”, 9710 fluorescence intensity (a.u.); that for “AAGGGCGAGGGTGGGTATGGGACAAGGCGGTGGACGCTGGCGGAGTCACCTAGTGCAG”, 12900 fluorescence intensity (a.u.).
The value for “GCACCCTCAACTAGTACAGTGCTACACTTGTTGGCCATTACGGAGTCACCTAGTGCAG” was 8280 fluorescence intensity (a.u.); that for “CTCGCAATTTTGTACGTGTATCATTCTTCCTCATTTTTCTCGGAGTCACCTAGTGCAG” was 9750 fluorescence intensity (a.u.).
The value for “TCCTTATTTTTTAATTCCGAATTTCAACTATTTCAACATTCGGAGTCACCTAGTGCAG” was 9730 fluorescence intensity (a.u.); that for “AGGGCGGTGGGGCGGCAAGGGACCAGATGGTGGGGCGGCACGGAGTCACCTAGTGCAG” was 11100 fluorescence intensity (a.u.); that for “GCACTCCACTTACTCTCCGCCCTGGCCCTCTTCTTGGTCTCGGAGTCACCTAGTGCAG” was 9370 fluorescence intensity (a.u.).
For “ACGATCCCCGAGCCTCTCTCGCGCGCGTCCCGTCACGTCTCGGAGTCACCTAGTGCAG”, the binding signal was 11900 fluorescence intensity (a.u.).
The value for “ACAGCAACTCACTGCAGCTTAGCTCTCTTTCTCTCTTAGTCGGAGTCACCTAGTGCAG” was 8340 fluorescence intensity (a.u.); that for “GAACGTGATTATGTATTTTTGGCTTGCTAATTTTTGGCTTCGGAGTCACCTAGTGCAG” was 8600 fluorescence intensity (a.u.); that for “TATACCTCCTGCTGTTGCTCTTGTTCACTTGTGCTCACAGCGGAGTCACCTAGTGCAG” was 8770 fluorescence intensity (a.u.).
Consider “CCTCCTCCTCCGCACCCACATCCAGGCCGTCCCGCCGCGGCGGAGTCACCTAGTGCAG”, for which the binding signal is 9340 fluorescence intensity (a.u.).
In the case of “ACCTCTCACCGCTCGCCAGCGCCTCCTCGTCCTCGCTGCTCGGAGTCACCTAGTGCAG”, the binding signal is 9910 fluorescence intensity (a.u.).
The result for “CCCAAGGTCAGACTGCTGCCAGCGTTCGCCTGTTCCCAAACGGAGTCACCTAGTGCAG” reads 9570 fluorescence intensity (a.u.).
The result for “CGCTACTCATCTACTCTACTCTACTCCTCCATCAACCAAACGGAGTCACCTAGTGCAG” reads 8480 fluorescence intensity (a.u.); that for “GCTCTAGCGCCGCCGCGCTTCCTCACGCCGGCTACCGGACCGGAGTCACCTAGTGCAG”, 8370 fluorescence intensity (a.u.); that for “GGGGCGGGGCGGCCGTGCTTACACATGTTGGCAACGCACGCGGAGTCACCTAGTGCAG”, 11600 fluorescence intensity (a.u.).
Take “TTACCGACGCAGCCTCGCCTACACTACACCCTCGATCCTTCGGAGTCACCTAGTGCAG”: the binding signal was 11100 fluorescence intensity (a.u.).
For the sequence “TGGCCCTCTACTTCTTTTGCAAGGTCAGCTGCATCGATTCCGGAGTCACCTAGTGCAG”, the binding signal was 8370 fluorescence intensity (a.u.).
The result for “TTTGTCACGCGAATACTGTATTGTAGGGTGGGGTTCACTGCGGAGTCACCTAGTGCAG” reads 12100 fluorescence intensity (a.u.); that for “AGAGCAGGTCGCCGGAACCTCTGCCTTCGACGTCCTGCACCGGAGTCACCTAGTGCAG”, 14200 fluorescence intensity (a.u.); that for “ACATGTGGGCCCCACATATTTATTTTTTTATTTTTTGCTGCGGAGTCACCTAGTGCAG”, 8380 fluorescence intensity (a.u.).
The value for “ATGTGGGTAGTGTCGAAAGTGTCGGCGACACGCTCCAGTGCGGAGTCACCTAGTGCAG” was 8410 fluorescence intensity (a.u.).
